Assay results taken from PubChem BioAssay AID212 (DTP/NCI, 2004).
The list does not hold the whole screen: it gathers tests that were run many times, whatever their T/C, doses with no T/C, and many T/C values between a quarter and a half above the control. Further doses and runs are listed elsewhere. T/C: endpoint of the treated group in % of that of the vehicle group. Schedules are NCI's codes, read here as Q, the interval in days (D) or hours (H), X, the number of doses. Some T/C values are followed by the survivors on the day toxicity was checked, most often the fifth; without a count, all were alive then. Some doses were run more than once; the values are given in rising order. Some entries give survivors of the animals treated and no T/C: the source files T/C as zero there, which appears to mark a toxic dose or a test without result, not a measured value. Survivors were counted at the toxicity check, usually on the fifth day, unless a day is given; later deaths do not show. For survival time, this PubChem deposit counts one and a half times the control or more as active, and values a quarter to a half above the control carry no call in these data; other NCI protocols may use other cut-offs.

Tested on: BDF1 mice, colon carcinoma 38 sc, T/C %
Test: NCI In Vivo Anticancer Drug Screen. Data for tumor model Colon Carcinoma 38 (subcutaneous) in B6D2F1 (BDF1) mice
Method in brief: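 Mice with transplanted tumors are treated with compound or vehicle. Survival or tumor size is then measured in both groups. The ratio of treated to control gives the reported figure.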

[1] = T/C endpoint: median tumor weight (est.), dose: 12.5 mg/kg/injection, schedule: Q07DX002 (ip), vehicle: saline with Tween-80, evaluated on day 20, higher T/C = larger tumour

S=C(Nc1ccc(Cl)c(Cl)c1)N1c2ccccc2-n2cccc2C1c1cccnc1 (stereo unspecified)
T/C (T/C endpoint: median tumor weight (est.), dose: 25.0 mg/kg/injection, schedule: Q07DX002 (ip), vehicle: Klucel (hydroxypropylcellulose) (HPC), evaluated on day 20, higher T/C = larger tumour): 127 and 142 % of control [9 of 10 alive on day 20]
T/C (T/C endpoint: median tumor weight (est.), dose: 50.0 mg/kg/injection, schedule: Q07DX002 (ip), vehicle: Klucel (hydroxypropylcellulose) (HPC), evaluated on day 20, higher T/C = larger tumour): 126 % of control
T/C (T/C endpoint: median tumor weight (est.), dose: 400.0 mg/kg/injection, schedule: Q07DX002 (ip), vehicle: Klucel (hydroxypropylcellulose) (HPC), evaluated on day 20, higher T/C = larger tumour): 139 % of control
T/C (T/C endpoint: median tumor weight (est.), dose: 800.0 mg/kg/injection, schedule: Q07DX002 (ip), vehicle: Klucel (hydroxypropylcellulose) (HPC), evaluated on day 20, higher T/C = larger tumour): 126 and 141 % of control

COC1=C(OC)C(=O)C(SC/C=C(\C)CCCC(C)CCCC(C)CCCC(C)C)=CC1=O (stereo unspecified)
T/C [1]: 126 % of control
T/C (T/C endpoint: median tumor weight (est.), dose: 50.0 mg/kg/injection, schedule: Q07DX002 (ip), vehicle: saline with Tween-80, evaluated on day 20, higher T/C = larger tumour): 141 % of control

CCCCN(CCCC)C(Cl)=Nc1ccccc1
survivor count (T/C endpoint: median tumor weight (est.), dose: 25.0 mg/kg/injection, schedule: Q07DX002 (ip), vehicle: Klucel (hydroxypropylcellulose) (HPC), higher T/C = larger tumour): 0 of 10 on day 20
survivor count (T/C endpoint: median tumor weight (est.), dose: 50.0 mg/kg/injection, schedule: Q07DX002 (ip), vehicle: Klucel (hydroxypropylcellulose) (HPC), higher T/C = larger tumour): 0 of 10 on day 20
survivor count (T/C endpoint: median tumor weight (est.), dose: 100.0 mg/kg/injection, schedule: Q07DX002 (ip), vehicle: Klucel (hydroxypropylcellulose) (HPC), higher T/C = larger tumour): 0 of 10 on day 20
T/C (T/C endpoint: median tumor weight (est.), dose: 200.0 mg/kg/injection, schedule: Q07DX002 (ip), vehicle: Klucel (hydroxypropylcellulose) (HPC), evaluated on day 20, higher T/C = larger tumour): 128 % of control [8 of 10 alive on day 20]
survivor count (T/C endpoint: median tumor weight (est.), dose: 200.0 mg/kg/injection, schedule: Q07DX002 (ip), vehicle: Klucel (hydroxypropylcellulose) (HPC), higher T/C = larger tumour): 0 of 10 on day 20 and 2 of 10 on day 20
survivor count (T/C endpoint: median tumor weight (est.), dose: 400.0 mg/kg/injection, schedule: Q07DX002 (ip), vehicle: Klucel (hydroxypropylcellulose) (HPC), higher T/C = larger tumour): 0 of 10 on day 20 and 2 of 10 on day 20

Nc1ccc(S(N)(=O)=O)cc1
T/C (T/C endpoint: median tumor weight (est.), dose: 200.0 mg/kg/injection, schedule: Q07DX002 (ip), vehicle: saline with Tween-80, evaluated on day 20, higher T/C = larger tumour): 129 % of control

NC(=O)/C=C/C(=O)c1c(Cl)cccc1Cl
T/C [1]: 128 % of control
survivor count (T/C endpoint: median tumor weight (est.), dose: 25.0 mg/kg/injection, schedule: Q07DX002 (ip), vehicle: saline with Tween-80, higher T/C = larger tumour): 3 of 10 on day 20
survivor count (T/C endpoint: median tumor weight (est.), dose: 50.0 mg/kg/injection, schedule: Q07DX002 (ip), vehicle: saline with Tween-80, higher T/C = larger tumour): 0 of 10 on day 20 and 1 of 10 on day 20

CC12CCC3C(CCC4CC(OC(=O)Cc5ccc(N(CCCl)CCCl)cc5)CCC43C)C1CCC(=O)N2 (stereo unspecified)
survivor count (T/C endpoint: median tumor weight (est.), dose: 48.0 mg/kg/injection, schedule: Q07DX002 (ip), vehicle: saline with Tween-80, higher T/C = larger tumour): 2 of 10 on day 20 and 3 of 10 on day 20

CC1OC(OC2CC(O)(C(=O)CO)Cc3c(O)c4c(c(O)c32)C(=O)c2ccccc2C4=O)CC(N)C1O (stereo unspecified)
T/C (T/C endpoint: median survival time, dose: 3.0 mg/kg/injection, schedule: Q07DX003 (iv), vehicle: saline, higher T/C = longer survival): 129 % of control
survivor count (T/C endpoint: median survival time, dose: 4.7 mg/kg/injection, schedule: Q07DX003 (iv), vehicle: saline, higher T/C = longer survival): 5 of 9 on day 60
survivor count (T/C endpoint: median survival time, dose: 7.3 mg/kg/injection, schedule: Q07DX003 (iv), vehicle: saline, higher T/C = longer survival): 1 of 10 on day 60
T/C (T/C endpoint: median tumor weight (est.), dose: 0.12 mg/kg/injection, schedule: Q07DX002 (ip), vehicle: saline, evaluated on day 20, higher T/C = larger tumour): 147 % of control
survivor count (T/C endpoint: median tumor weight (est.), dose: 2.0 mg/kg/injection, schedule: Q07DX002 (ip), vehicle: water, higher T/C = larger tumour): 5 of 10 on day 20
survivor count (T/C endpoint: median tumor weight (est.), dose: 4.0 mg/kg/injection, schedule: Q07DX002 (ip), vehicle: water, higher T/C = larger tumour): 0 of 10 on day 20

C1OC1CO[C@@H]1CO[C@H]2[C@@H]1OC[C@H]2OCC1CO1 (stereo partly specified)
survivor count (T/C endpoint: median tumor weight (est.), dose: 800.0 mg/kg/injection, schedule: Q07DX002 (ip), vehicle: suspension in saline, higher T/C = larger tumour): 0 of 10 on day 20

COc1cc2cc3c4cc(OC)c(OC)cc4cc[n+]3c(C)c2cc1OC (tested in a mixture with another compound)
T/C (T/C endpoint: median tumor weight (est.), dose: 25.0 mg/kg/injection, schedule: Q07DX003 (ip), vehicle: saline, evaluated on day 20, higher T/C = larger tumour): 148 % of control
T/C (T/C endpoint: median tumor weight (est.), dose: 50.0 mg/kg/injection, schedule: Q07DX003 (ip), vehicle: saline, evaluated on day 20, higher T/C = larger tumour): 131 % of control
